According to the supplement of paper PMC12819154, “High-throughput peptide-centric local stability assay extends protein–ligand identification to membrane proteins, tissues and bacteria” (Nature Structural & Molecular Biology, 2025):
Some of the results follow. Most values lie at the level of the controls, where differences are scatter.

Protein sequences, listed by entry. Tags and fused reporters are not part of them. Lines headed by an entry give the natural chain unless they say otherwise; changes in a name come on top.
UniProt Q8R5F8: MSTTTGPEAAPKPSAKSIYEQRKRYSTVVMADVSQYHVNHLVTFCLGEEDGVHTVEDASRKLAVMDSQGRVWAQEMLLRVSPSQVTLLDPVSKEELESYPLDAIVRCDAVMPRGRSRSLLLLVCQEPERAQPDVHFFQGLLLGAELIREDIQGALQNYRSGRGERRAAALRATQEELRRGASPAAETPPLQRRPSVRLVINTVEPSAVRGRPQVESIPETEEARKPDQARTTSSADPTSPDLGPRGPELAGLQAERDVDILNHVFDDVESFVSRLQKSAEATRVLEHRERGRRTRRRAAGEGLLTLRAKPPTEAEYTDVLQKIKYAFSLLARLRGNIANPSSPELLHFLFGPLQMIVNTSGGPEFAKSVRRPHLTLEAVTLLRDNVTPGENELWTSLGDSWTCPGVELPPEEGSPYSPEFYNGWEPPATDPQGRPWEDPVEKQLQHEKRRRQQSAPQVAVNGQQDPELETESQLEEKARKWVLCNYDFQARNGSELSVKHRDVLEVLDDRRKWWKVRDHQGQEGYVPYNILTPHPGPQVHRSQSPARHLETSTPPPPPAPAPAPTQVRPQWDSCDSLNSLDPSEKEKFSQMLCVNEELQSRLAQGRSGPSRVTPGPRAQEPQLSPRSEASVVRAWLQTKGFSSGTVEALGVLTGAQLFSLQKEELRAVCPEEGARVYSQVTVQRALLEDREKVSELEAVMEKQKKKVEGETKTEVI
UniProt Q8VDI9: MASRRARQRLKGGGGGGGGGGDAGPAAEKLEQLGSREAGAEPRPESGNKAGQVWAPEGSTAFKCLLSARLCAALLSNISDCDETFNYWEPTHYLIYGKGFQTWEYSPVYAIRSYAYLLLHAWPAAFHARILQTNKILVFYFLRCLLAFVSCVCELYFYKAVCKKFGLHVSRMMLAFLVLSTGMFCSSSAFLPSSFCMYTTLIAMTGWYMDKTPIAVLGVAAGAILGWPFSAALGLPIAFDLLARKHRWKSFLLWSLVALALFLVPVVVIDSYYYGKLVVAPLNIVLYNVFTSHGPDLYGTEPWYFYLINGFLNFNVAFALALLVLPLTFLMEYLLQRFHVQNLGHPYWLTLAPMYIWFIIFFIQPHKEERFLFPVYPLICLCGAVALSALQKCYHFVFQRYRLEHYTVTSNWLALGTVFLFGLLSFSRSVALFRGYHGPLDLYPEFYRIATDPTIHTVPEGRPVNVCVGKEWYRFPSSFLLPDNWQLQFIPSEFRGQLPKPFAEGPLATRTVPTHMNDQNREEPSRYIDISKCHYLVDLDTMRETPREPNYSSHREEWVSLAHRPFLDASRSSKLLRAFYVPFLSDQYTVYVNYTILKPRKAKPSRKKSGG
UniProt Q8VDU0: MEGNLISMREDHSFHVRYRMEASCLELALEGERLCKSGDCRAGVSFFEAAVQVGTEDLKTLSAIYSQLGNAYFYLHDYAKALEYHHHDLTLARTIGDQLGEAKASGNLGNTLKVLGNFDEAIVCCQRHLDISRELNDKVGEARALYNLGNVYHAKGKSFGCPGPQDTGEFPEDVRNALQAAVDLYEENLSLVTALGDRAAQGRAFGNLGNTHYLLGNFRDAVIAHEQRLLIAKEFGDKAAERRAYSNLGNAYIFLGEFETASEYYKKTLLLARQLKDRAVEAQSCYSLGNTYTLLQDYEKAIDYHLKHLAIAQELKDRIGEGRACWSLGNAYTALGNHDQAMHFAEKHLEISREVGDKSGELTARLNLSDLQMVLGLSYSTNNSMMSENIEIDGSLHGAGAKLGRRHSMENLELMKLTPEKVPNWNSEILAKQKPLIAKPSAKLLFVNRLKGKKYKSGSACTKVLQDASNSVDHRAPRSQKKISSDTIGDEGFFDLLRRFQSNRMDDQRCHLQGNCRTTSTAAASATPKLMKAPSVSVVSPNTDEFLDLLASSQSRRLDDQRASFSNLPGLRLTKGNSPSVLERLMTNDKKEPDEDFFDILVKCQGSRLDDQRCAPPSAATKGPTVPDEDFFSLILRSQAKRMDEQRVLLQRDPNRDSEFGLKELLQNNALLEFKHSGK
UniProt Q8VCM7: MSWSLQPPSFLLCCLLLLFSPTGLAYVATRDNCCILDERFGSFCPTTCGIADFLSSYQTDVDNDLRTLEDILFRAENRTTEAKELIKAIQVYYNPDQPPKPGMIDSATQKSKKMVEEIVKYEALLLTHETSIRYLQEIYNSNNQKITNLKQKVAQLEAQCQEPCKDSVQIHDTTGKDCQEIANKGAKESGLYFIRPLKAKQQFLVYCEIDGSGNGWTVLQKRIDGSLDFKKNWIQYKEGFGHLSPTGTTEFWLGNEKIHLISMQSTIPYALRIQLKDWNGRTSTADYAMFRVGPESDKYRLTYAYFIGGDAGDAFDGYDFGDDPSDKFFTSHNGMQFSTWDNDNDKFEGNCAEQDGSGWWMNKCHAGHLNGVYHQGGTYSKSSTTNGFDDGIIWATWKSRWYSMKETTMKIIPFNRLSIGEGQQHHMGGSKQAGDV
UniProt Q8VCZ6: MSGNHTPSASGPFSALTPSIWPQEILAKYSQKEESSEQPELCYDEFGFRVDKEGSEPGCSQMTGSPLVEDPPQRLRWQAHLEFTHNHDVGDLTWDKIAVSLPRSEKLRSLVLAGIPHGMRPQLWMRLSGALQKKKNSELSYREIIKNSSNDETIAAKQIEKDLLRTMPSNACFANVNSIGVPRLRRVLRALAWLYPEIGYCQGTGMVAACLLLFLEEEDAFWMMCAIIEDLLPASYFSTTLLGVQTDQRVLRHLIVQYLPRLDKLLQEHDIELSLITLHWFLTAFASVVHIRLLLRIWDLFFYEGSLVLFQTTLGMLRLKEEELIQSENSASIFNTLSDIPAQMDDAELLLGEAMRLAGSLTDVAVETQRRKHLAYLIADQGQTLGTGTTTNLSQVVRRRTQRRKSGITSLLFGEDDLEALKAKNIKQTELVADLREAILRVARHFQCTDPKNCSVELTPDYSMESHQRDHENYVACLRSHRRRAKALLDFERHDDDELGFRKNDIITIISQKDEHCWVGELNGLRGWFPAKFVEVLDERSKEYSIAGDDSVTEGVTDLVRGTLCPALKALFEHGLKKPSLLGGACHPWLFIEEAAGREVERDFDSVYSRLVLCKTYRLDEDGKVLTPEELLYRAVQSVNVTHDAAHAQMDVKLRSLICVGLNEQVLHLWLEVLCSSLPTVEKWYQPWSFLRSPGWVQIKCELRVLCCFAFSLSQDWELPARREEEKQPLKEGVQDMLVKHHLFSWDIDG
UniProt Q8VBU8: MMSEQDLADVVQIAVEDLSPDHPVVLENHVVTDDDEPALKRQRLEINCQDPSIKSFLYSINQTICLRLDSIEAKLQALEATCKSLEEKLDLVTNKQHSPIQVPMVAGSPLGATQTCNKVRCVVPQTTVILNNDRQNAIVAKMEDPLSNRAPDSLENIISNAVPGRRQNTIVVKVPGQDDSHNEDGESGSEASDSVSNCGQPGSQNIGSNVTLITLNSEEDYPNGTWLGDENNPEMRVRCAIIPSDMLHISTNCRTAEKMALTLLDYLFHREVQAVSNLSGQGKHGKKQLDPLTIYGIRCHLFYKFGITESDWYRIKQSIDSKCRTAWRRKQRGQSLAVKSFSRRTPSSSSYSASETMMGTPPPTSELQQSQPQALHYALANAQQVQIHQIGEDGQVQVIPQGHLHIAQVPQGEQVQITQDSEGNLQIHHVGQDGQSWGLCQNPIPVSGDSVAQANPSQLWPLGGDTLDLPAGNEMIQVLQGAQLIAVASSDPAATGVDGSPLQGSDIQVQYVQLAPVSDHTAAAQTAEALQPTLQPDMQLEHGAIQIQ
UniProt Q8VEB6: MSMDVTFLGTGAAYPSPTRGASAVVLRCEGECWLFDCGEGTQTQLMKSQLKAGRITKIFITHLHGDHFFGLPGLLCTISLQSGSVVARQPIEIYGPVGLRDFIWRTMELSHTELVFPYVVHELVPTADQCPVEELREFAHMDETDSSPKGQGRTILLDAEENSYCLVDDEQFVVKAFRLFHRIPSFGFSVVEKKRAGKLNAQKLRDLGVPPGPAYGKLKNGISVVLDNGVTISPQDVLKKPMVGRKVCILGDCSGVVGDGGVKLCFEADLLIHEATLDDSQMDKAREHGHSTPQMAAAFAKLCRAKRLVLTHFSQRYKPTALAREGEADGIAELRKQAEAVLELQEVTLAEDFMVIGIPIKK
UniProt Q8VD12: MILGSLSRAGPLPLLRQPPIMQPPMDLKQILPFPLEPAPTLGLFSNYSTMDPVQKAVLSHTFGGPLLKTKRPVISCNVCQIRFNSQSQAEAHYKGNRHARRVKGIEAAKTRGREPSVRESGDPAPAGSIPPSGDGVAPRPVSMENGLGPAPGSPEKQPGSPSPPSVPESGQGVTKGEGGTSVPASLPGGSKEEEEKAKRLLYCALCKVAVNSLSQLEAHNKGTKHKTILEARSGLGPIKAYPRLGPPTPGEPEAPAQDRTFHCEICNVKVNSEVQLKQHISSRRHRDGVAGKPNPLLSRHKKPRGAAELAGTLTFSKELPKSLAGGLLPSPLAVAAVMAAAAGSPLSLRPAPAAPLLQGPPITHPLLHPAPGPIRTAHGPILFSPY
UniProt Q8VD57: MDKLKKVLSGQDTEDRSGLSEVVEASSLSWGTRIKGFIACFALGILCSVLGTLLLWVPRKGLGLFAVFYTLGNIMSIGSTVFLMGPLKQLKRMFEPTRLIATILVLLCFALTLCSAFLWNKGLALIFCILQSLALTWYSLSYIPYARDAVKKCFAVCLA
UniProt Q8VE18: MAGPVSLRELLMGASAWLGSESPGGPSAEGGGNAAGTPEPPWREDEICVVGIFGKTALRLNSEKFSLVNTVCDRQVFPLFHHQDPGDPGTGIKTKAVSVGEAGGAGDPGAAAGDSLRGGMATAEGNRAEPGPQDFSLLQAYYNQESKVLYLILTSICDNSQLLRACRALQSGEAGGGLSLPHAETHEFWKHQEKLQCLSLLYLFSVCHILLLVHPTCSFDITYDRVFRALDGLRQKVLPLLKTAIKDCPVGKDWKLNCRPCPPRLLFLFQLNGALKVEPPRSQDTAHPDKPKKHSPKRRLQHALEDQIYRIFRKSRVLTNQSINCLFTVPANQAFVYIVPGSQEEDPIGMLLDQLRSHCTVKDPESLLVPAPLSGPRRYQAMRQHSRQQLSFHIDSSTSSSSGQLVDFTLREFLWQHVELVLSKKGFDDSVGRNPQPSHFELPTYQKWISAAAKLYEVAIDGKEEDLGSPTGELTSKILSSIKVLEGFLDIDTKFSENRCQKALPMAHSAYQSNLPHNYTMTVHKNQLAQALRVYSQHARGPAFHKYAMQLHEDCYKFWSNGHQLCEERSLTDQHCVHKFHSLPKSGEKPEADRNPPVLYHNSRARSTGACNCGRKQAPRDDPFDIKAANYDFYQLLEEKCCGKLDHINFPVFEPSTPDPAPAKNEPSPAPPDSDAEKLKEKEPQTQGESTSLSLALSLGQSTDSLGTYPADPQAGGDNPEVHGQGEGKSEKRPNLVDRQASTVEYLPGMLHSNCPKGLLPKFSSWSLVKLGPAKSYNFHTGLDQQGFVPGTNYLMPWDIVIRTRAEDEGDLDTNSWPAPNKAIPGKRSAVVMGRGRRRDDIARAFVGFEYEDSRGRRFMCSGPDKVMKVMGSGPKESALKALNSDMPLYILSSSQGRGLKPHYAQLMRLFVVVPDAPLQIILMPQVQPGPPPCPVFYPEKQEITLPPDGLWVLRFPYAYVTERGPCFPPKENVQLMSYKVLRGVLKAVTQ
UniProt Q8VEC3: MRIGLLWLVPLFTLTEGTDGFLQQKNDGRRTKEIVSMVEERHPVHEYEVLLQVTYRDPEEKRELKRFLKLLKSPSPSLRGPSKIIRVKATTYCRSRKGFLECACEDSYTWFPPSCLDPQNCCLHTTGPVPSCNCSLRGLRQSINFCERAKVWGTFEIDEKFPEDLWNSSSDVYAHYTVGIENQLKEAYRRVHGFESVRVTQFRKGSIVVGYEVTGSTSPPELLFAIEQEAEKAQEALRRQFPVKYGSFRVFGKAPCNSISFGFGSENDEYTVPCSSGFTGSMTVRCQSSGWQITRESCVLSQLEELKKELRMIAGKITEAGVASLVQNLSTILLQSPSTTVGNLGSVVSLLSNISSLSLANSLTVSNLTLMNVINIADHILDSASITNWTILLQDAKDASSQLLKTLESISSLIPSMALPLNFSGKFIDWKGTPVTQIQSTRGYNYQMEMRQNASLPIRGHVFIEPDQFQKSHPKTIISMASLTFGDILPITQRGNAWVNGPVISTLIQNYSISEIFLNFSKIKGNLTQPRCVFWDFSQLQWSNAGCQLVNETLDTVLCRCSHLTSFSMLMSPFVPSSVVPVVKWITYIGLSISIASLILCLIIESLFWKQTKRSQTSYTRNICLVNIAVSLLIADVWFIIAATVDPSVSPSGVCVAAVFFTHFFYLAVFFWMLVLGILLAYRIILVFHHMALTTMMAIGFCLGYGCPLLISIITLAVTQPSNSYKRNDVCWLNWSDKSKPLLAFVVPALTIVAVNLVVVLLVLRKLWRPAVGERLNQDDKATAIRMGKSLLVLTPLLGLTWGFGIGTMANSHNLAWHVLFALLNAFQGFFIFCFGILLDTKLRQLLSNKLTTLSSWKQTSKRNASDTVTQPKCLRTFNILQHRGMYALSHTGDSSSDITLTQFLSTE

Compound: CN[C@@H]1C[C@H]2O[C@@](C)([C@@H]1OC)n1c3ccccc3c3c4c(c5c6ccccc6n2c5c31)C(=O)NC4 [staurosporine]
Assay: log2 fold change of tryptic peptide abundance, ligand vs vehicle (limited proteolysis) (log2 ratio); higher = more trypsin-susceptible (destabilized)
Conditions: ligand concentration: 20 uM; sample: mouse liver crude lysate; replicate design: treated separately

Target	log2 fold change
UniProt Q8R2X8 (peptide sequence: NTAQLSEQLER, peptide start residue: 200)	0.421
UniProt Q8R5F8 (peptide sequence: LVINTVEPSAVR, peptide start residue: 198)	-0.00814
UniProt Q8VC97 (peptide sequence: KHNMVVVSPILER, peptide start residue: 157)	-0.417
UniProt Q8VDF3 (peptide sequence: ESVVNLENFKK, peptide start residue: 298)	0.175
UniProt Q8VDI9 (peptide sequence: LKGGGGGGGGGGDAGPAAEK, peptide start residue: 10)	-0.143
UniProt Q8VCC1 (peptide sequence: EENMGQYIEYKDQIK, peptide start residue: 197)	0.223
UniProt Q8VDU0 (peptide sequence: ALEYHHHDLTLAR, peptide start residue: 81)	-0.339
UniProt Q8VBX6 (peptide sequence: AAPFHSER, peptide start residue: 1793)	-0.317
UniProt Q8VCM7 (peptide sequence: KNWIQYK, peptide start residue: 231)	0.388
UniProt Q8VCZ6 (peptide sequence: DHENYVACLR, peptide start residue: 470)	-0.139
UniProt Q8VBU8 (peptide sequence: CAIIPSDMLHISTNCR, peptide start residue: 239)	0.46
UniProt Q8VCX6 (peptide sequence: KHQQGLGDR, peptide start residue: 411)	-0.252
UniProt Q8VD76 (peptide sequence: ISLPPVLK, peptide start residue: 292)	-0.19
UniProt Q8VCZ9 (peptide sequence: LCKELSAWIQRPR, peptide start residue: 169)	0.781
UniProt Q8VEB6 (peptide sequence: EGEADGIAELRK, peptide start residue: 325)	0.419
UniProt Q8R3K3 (peptide sequence: LKEFQHK, peptide start residue: 48)	-0.169
UniProt Q8VD12 (peptide sequence: FNSQSQAEAHYK, peptide start residue: 83)	0.496
UniProt Q8VEE0 (peptide sequence: NVCSEAAQKR, peptide start residue: 215)	0.135

3 entries from above, set out differently:
Target,log2 fold change
"UniProt Q8R2X8 (peptide sequence: NTAQLSEQLER, peptide start residue: 200)",0.421
"UniProt Q8VDU0 (peptide sequence: ALEYHHHDLTLAR, peptide start residue: 81)",-0.339
"UniProt Q8VD76 (peptide sequence: ISLPPVLK, peptide start residue: 292)",-0.19

The listing continues:

Target	log2 fold change
UniProt Q8VD65 (peptide sequence: TKQEPDEKR, peptide start residue: 836)	0.585
UniProt Q8R4V1 (peptide sequence: STVGTTKPPAESVYTSLQR, peptide start residue: 202)	0.0753
UniProt Q8VDQ9 (peptide sequence: DYILNKR, peptide start residue: 248)	-0.232
UniProt Q8VDG5 (peptide sequence: VVLITSGGTKVPLEAR, peptide start residue: 37)	-0.512
UniProt Q8VCG9 (peptide sequence: TCTYEGCR, peptide start residue: 100)	0.0522
UniProt Q8VH51 (peptide sequence: KDENKLNSANGHEER, peptide start residue: 17)	-0.622
UniProt Q8R4I1 (peptide sequence: HDSQQVPHPLRDPHPTPPR, peptide start residue: 387)	0.0643
UniProt Q8R3C6 (peptide sequence: SEEEAQAALNHFHR, peptide start residue: 51)	-0.288
UniProt Q8VD57 (peptide sequence: KVLSGQDTEDR, peptide start residue: 6)	-0.174
UniProt Q8R3B7 (peptide sequence: KLEEEEAEVK, peptide start residue: 150)	0.787
UniProt Q8R310 (peptide sequence: AYGGSATIVNKPK, peptide start residue: 238)	0.296
UniProt Q8VDW0 (peptide sequence: LTLHGLQQYYVK, peptide start residue: 256)	-0.444
UniProt Q8R2V3 (peptide sequence: KPWGVNICTVQLKR, peptide start residue: 275)	0.454
UniProt Q8VE18 (peptide sequence: RPNLVDR, peptide start residue: 733)	-0.624
UniProt Q8VDP2 (peptide sequence: TNIYTQK, peptide start residue: 129)	-0.197
UniProt Q8VE99 (peptide sequence: VEEGWLSLAK, peptide start residue: 35)	-0.269
UniProt Q8VBW8 (peptide sequence: QSFVQSGLLAR, peptide start residue: 121)	0.0731
UniProt Q8VEC3 (peptide sequence: TFNILQHR, peptide start residue: 877)	0.118
